Source: the supplement of paper PMC10849652
Some of the results follow.

By UniProt entry, the sequences of proteins in these tests, tags left out. Where a name states a change or a piece, a line headed by the entry shows the natural chain unless it says otherwise.
UniProt P22415: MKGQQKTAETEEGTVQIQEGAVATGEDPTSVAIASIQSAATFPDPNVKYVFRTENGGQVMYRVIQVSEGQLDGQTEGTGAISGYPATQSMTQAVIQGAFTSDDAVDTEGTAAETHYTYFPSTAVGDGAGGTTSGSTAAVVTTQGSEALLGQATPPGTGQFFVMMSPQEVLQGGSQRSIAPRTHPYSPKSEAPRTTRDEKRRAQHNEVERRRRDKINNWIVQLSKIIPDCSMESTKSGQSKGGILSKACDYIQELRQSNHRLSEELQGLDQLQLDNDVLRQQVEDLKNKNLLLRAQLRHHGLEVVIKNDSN
UniProt Q9UHD9, whole entry, looked up: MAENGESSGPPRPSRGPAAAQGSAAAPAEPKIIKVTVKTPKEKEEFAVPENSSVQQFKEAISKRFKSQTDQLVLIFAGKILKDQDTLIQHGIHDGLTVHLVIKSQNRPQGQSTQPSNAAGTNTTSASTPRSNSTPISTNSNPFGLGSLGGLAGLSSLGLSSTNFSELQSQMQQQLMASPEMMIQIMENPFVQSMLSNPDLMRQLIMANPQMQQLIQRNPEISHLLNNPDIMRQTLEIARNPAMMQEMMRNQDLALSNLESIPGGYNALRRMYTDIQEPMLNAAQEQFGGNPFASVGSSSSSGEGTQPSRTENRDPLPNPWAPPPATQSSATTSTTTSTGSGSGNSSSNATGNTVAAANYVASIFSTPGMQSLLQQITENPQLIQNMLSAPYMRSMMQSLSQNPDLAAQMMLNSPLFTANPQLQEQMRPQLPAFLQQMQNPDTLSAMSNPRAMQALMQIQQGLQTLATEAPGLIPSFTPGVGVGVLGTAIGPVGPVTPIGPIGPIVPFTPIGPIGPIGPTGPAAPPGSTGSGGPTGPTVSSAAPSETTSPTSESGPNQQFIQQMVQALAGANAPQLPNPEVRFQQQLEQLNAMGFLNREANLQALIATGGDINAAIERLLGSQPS
UniProt O75317, whole entry, looked up: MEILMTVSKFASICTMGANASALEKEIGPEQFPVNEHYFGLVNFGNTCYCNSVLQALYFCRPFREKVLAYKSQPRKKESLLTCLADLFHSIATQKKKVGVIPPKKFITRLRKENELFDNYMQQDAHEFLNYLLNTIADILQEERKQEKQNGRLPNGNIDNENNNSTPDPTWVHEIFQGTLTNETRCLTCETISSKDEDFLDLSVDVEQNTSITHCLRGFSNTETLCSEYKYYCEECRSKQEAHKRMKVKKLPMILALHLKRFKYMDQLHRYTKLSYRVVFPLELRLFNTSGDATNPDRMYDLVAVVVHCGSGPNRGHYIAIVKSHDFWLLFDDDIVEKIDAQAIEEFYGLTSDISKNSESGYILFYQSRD
UniProt Q8TEY7: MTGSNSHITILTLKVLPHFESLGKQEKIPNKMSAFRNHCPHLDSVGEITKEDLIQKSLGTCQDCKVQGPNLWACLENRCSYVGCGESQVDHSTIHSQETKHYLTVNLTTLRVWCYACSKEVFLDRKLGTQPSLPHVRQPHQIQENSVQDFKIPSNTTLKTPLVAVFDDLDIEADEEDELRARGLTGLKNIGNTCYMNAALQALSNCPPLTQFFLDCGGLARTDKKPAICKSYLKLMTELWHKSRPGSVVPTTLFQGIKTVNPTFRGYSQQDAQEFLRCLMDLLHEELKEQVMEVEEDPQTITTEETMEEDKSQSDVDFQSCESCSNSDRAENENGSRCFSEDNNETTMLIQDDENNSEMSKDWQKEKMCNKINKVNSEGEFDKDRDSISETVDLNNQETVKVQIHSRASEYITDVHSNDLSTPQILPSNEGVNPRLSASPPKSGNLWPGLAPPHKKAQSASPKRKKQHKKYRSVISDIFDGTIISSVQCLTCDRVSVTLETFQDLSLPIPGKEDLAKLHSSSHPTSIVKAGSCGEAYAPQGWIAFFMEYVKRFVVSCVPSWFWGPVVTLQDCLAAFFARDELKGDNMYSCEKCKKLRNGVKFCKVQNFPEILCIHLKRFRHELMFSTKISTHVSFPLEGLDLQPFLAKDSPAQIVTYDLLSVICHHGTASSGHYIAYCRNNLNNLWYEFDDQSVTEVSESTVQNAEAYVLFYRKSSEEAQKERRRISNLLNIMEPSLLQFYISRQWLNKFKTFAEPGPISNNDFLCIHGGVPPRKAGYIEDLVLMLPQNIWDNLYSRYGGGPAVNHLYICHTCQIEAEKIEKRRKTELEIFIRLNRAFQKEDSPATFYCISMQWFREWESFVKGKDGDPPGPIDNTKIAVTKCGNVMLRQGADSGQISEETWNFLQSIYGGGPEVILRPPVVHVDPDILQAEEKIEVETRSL

Assays:
Test in all cases: log2 fold change, soluble protein after heating vs DMSO (PISA); higher = thermal stabilisation; K562 cells, 10 uM, 30 min; active = over 0.2 and 3.5 SD of the protein, either way, in both replicates (recomputed)
bafetinib = compound: Cc1ccc(NC(=O)c2ccc(CN3CC[C@H](N(C)C)C3)c(C(F)(F)F)c2)cc1Nc1nccc(-c2cncnc2)n1 [bafetinib]
Summary of the method: (§1)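 K562 cells at 2×10^6 cells/mL were exposed to 10 μM compound for 30 min, then aliquots were heated for 3 min across 48°C-58°C, pooled, and extracted in PBS containing 0.5% NP-40 at 4°C. The supernatant after 21,000xg for 90 min was taken as soluble protein and measured by TMTpro 16plex LC-MS/MS with channel sums equalised. Thermal stability is reported relative to control samples, with values from duplicates. Fold changes are given on a log2 scale.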

[1] = compound: Cc1cccc(CC(=O)N2CCc3c2ccc(-c2cn(C)c4ncnc(N)c24)c3F)n1
Summary of the method: as §1

nilotinib = compound: Cc1cn(-c2cc(NC(=O)c3ccc(C)c(Nc4nccc(-c5cccnc5)n4)c3)cc(C(F)(F)F)c2)cn1 [nilotinib]
Summary of the method: as §1

[2] = compound: Cc1nc(Nc2n[nH]c3c2CN(C(=O)N[C@H](CN(C)C)c2ccccc2)C3(C)C)c2sccc2n1
Summary of the method: as §1

[3] = compound: Cc1ncc(-c2ccnc(Nc3ccc(S(C)(=O)=O)cc3)n2)n1C(C)C
Summary of the method: as §1

[4] = compound: Cn1cc(-c2ccc3nnc(C(F)(F)c4ccc5ncccc5c4)n3n2)cn1
Summary of the method: as §1

tipifarnib = compound: Cn1cncc1[C@@](N)(c1ccc(Cl)cc1)c1ccc2c(c1)c(-c1cccc(Cl)c1)cc(=O)n2C [tipifarnib]
Summary of the method: as §1

mubritinib = compound: FC(F)(F)c1ccc(/C=C/c2nc(COc3ccc(CCCCn4ccnn4)cc3)co2)cc1 [mubritinib]
Summary of the method: as §1

[5] = compound: NC(=O)Nc1cc(-c2cccc(F)c2)sc1C(=O)N[C@H]1CCCNC1
Summary of the method: as §1

[6] = compound: NC(=O)c1cnc(N[C@@H]2CCCC[C@@H]2N)nc1Nc1cccc(-n2nccn2)c1
Summary of the method: as §1

[7] = compound: NC1(c2ccc(-c3nc4ccn5c(=O)[nH]nc5c4cc3-c3ccccc3)cc2)CCC1
Summary of the method: as §1

[8] = compound: NCC(=O)Nc1ccc(-n2nc(C(F)(F)F)cc2-c2ccc3c(ccc4ccccc43)c2)cc1
Summary of the method: as §1

entinostat = compound: Nc1ccccc1NC(=O)c1ccc(CNC(=O)OCc2cccnc2)cc1 [entinostat]
Summary of the method: as §1

vorinostat = compound: O=C(CCCCCCC(=O)Nc1ccccc1)NO [vorinostat]
Summary of the method: as §1

silmitasertib = compound: O=C(O)c1ccc2c(c1)nc(Nc1cccc(Cl)c1)c1ccncc12 [silmitasertib]
Summary of the method: as §1

[9] = compound: O=C1NC(=O)C(c2cnc3ccccn23)=C1c1cn2c3c(cc(F)cc13)CN(C(=O)N1CCCCC1)CC2
Summary of the method: as §1

dasatinib = compound: Cc1nc(Nc2ncc(C(=O)Nc3c(C)cccc3Cl)s2)cc(N2CCN(CCO)CC2)n1 [dasatinib]
Summary of the method: as §1

[10] = compound: Cn1cc(-c2ccc3c(c2)CCN3C(=O)Cc2cccc(C(F)(F)F)c2)c2c(N)ncnc21
Summary of the method: as §1

citarinostat = compound: O=C(CCCCCCNC(=O)c1cnc(N(c2ccccc2)c2ccccc2Cl)nc1)NO [citarinostat]
Summary of the method: as §1

[11] = compound: c1cc(OCCN2CCCCC2)cc(-c2n[nH]c3ccc(-c4nnc[nH]4)cc23)c1
Summary of the method: as §1

Measured: log2 fold change

USF1 (UniProt P22415)
inactive: bafetinib -0.002 | [1] 0.094 | nilotinib -0.003 | [2] -0.001 | [3] -0.007 | [4] 0.003 | tipifarnib 0.02 | mubritinib -0.024 | [5] -0.085 | [6] -0.06 | [7] -0.114 | [8] 0.101 | entinostat 0.088 | vorinostat 0.054 | silmitasertib 0.121 | [9] -0.01

UBQLN2 (UniProt Q9UHD9)
inactive: bafetinib -0.005 | [1] 0.05 | nilotinib -0.014 | [2] -0.018 | dasatinib 0.038 | [3] -0.011 | [10] 0.027 | [4] 0.04 | tipifarnib -0.087 | mubritinib 0.058 | [5] 0.033 | [6] 0.031 | [7] -0.033 | [8] 0.025 | entinostat 0.025 | vorinostat -0.007 | citarinostat 0.089 | silmitasertib 0.015 | [9] -0.006 | [11] -0.031

USP12 (UniProt O75317)
inactive: [1] -0.091 | dasatinib 0.023 | [10] 0.016 | [4] -0.008 | mubritinib -0.3 | [6] -0.043 | [7] -0.299 | [8] 0.002 | vorinostat -0.113 | citarinostat -0.001 | silmitasertib -0.043 | [11] 0.102

USP33 (UniProt Q8TEY7)
inactive: dasatinib -0.257 | [4] -0.146 | [5] 0.056 | [6] 0.257 | [8] -0.221 | entinostat 0.006

Reprinted from above (2 entries):
USP12 (UniProt O75317)
inactive: [1] -0.091 | dasatinib 0.023 | [10] 0.016 | [4] -0.008 | mubritinib -0.3 | [6] -0.043 | [7] -0.299 | [8] 0.002 | vorinostat -0.113 | citarinostat -0.001 | silmitasertib -0.043 | [11] 0.102

USP33 (UniProt Q8TEY7)
inactive: dasatinib -0.257 | [4] -0.146 | [5] 0.056 | [6] 0.257 | [8] -0.221 | entinostat 0.006
